In publication PMC6828672:
No constants are given. Whether binding was seen depends on the method and setting. Binding seen in cells or lysates may run through a third protein. Where a sequence is shown, tags or fusion partners need not be part of it.

Molecular target: ΔBTB-KCASH2-Flag, the KCASH2 C-terminal region (human)
Experiment: co-IP; lysates of co-transfected HEK293T cells (50 mM Tris-HCl pH 7.6, 1% deoxycholate, 150 mM NaCl, 1% NP40, 5 mM EDTA, 100 mM NaF) incubated with anti-Flag M2 agarose beads 2 h at 4 °C; Western blot

B1: HA-tagged KCTD15, full length (protein, UniProt Q96SI1 1-283)
chain: MPHRKERPSGSSLHTHGSTGTAEGGNMSRLSLTRSPVSPLAAQGIPLPAQLTKSNAPVHIDVGGHMYTSSLATLTKYPDSRISRLFNGTEPIVLDSLKQHYFIDRDGEIFRYVLSFLRTSKLLLPDDFKDFSLLYEEARYYQLQPMVRELERWQQEQEQRRRSRACDCLVVRVTPDLGERIALSGEKALIEEVFPETGDVMCNSVNAGWNQDPTHVIRFPLNGYCRLNSVQVLERLFQRGFSVAASCGGGVDSSQFSEYVLCREERRPQPTPTAVRIKQEPLD
B1 was tested. Which binding did it give?
Its binding is “no binding”.
